Measurements: paper PMC7965737 (Bioconjugate chemistry, 2019)
Where a name gives a salt, the structure may show the parent alone.

Test system: MDA-MB-231
Assay: MTT cytotoxicity assay, MDA-MB-231
Format: cell-based, Human
Details: MDA-MB-231 breast cancer cell line, serum-free media, 48 h

With COc1cccc2c1C(=O)c1c(O)c3c(c(O)c1C2=O)C[C@@](O)(C(=O)CO)C[C@@H]3O[C@H]1C[C@H](N)[C@H](O)[C@H](C)O1 [Dox, Doxorubicin hydrochloride] the IC50 was 1500 nM.
